# Entries after “also recorded” stand apart in the source; their conditions may differ. Part of at least one peptide drawing is inferred or uncertain, most often the ends.
# Key:
# [1] = test system: normal human mammary epithelial cells; test: SU-ECM invasion assay, normal human mammary epithelial cells; assay type: cell-based; conditions: 10% FCS, 100 ng per ml PHSRN, varying concentrations
# Akt = test: Serum-induced Akt phosphorylation (S473) immunoblot in adherent DU 145 cells; assay type: cell-based, human; conditions: 1 μg/ml, 10% FCS
# MatLyLu (MLL) cells [2] = test: MLL tumor growth and lung metastasis in Copenhagen rats, treatment from cell injection (Example 12); assay type: in vivo
# [3] = Clotting of PHSCN peptide-treated blood in vivo
# MATLyLu prostate cancer = conditions: Livant et al., Cancer Research 60:309-320 (2000); cited from earlier work
# [4] = test system: normal human prostate epithelial cells; test: SU-ECM invasion assay, normal human prostate epithelial cells; assay type: cell-based; conditions: 10% FCS, 100 ng per ml PHSRN, varying concentrations
# [5] = test system: SUM-52 PE breast cancer cells; test: SU-ECM invasion assay, SUM-52 PE breast cancer cells; assay type: cell-based, human; conditions: varying concentrations
# Procedure: (§1) Adult Strongylocentrotus purpuratus sea urchins were obtained from Pacific BioMarine, and their embryos were cultured to the early pluteus stage in artificial sea water at 15° C. SU-ECM were prepared from them by treatment with nonionic detergent and strerilized by dilution in the appropriate media.
# (§2) Cells were harvested by rinsing in Hanks' balanced salt solution, followed by brief treatment with 0.25% trypsin, 0.02% EDTA, and pelleting and resuspension in the appropriate medium with or without 5% FCS at a density of about 50,000 cells per ml. […]
# (§3) Invasion assays were coded and scored blindly by microscopic examination under phase contrast at 200- and 400-fold magnification. Each cell contacting an SU-ECM was scored for its position relative to the exterior or interior surfaces. […] The minimum viability of the cells in each assay was always ascertained at the time of assay by determining the fraction of spread, adherent cells on the bottom of each well scored.
# (§4) An invasion frequency is defined as the fraction of cells in contact with basement membranes which were located in their interiors at the time of assay. […] Invasion frequencies were determined multiple times for each cell type assayed. For each type of cell assayed the mean and standard deviation of the invasion frequencies were calculated. […]
# β1 integrin = target: T1, β1 integrin (Homo sapiens, UniProt P05556); test: MAb 2252 anti-β1 antibody binding to DU 145 cells after PHSCN prebinding; conditions: MAb 2252 raised to β1 integrin amino acids 15-54
# T1 construct: a PHSCN peptide may attach to the β1 integrin region on DU 145 cells; endogenous in cells; host or cells: DU 145 cells
# MatLyLu (MLL) cells [6] = test: SU-ECM invasion assay, rat MatLyLu (MLL) prostate carcinoma cells; assay type: cell-based
# Procedure: as §1, with “media. […]” for “media.”
# as §3, §4
# FAK = test: Serum-induced FAK phosphorylation (Y397) immunoblot in adherent DU 145 cells; assay type: cell-based, human; conditions: serum-starved DU 145 cells overnight, 1 μg/ml/20,000 cells, in the presence of serum
# [7] = test system: DU-145 prostate cancer cells; test: SU-ECM invasion assay, DU-145 prostate cancer cells; assay type: cell-based, human; conditions: varying concentrations
# Procedure: as §1, §2, §3, §4
# DU 145 cells = test: Apoptosis induction in adherent DU 145 cells (immunoblot, cytokeratin 18 epitope); assay type: cell-based, human
# [8] = test system: DU 145 human prostate carcinoma; conditions: thrice-weekly 50 mg/kg after excision of primary tumors; 40 treated mice; cited from earlier work
# [9] = test system: PI3′-kinase p85 regulatory subunit with FAK; test: Association of PI3′-kinase p85 regulatory subunit with FAK in adherent DU 145 cells; assay type: cell-based, human; conditions: data not shown
# MatLyLu (MLL) cells [10] = test: MLL tumor growth and metastasis in Copenhagen rats, treatment initiated after 24 hours (Example 13); assay type: in vivo
# [11] = adherent DU 145 cell lysates, Days 1-7, Western immunoblot
substance,measurement,setting,value
"Ac-PHSCN-NH2 (N-terminus and C-terminus assumed) [PHSCN, Pro-His-Ser-Cys-Asn]",inhibition of PHSRN-induced invasion,[1],substantial inhibitory affect on both cell lines at low concentrations; also recorded: almost complete inhibition at higher concentrations
same,serum-induced Akt phosphorylation at serine 473,Akt,downregulates serum-induced Akt phosphorylation at serine 473
same,tumor growth,"MatLyLu (MLL) cells [2]; 1 mg with cells, then 1 mg tail vein three times per week for two weeks, day 14",significantly slows the growth of injected MLL tumors in rats
same,mean number of lung metastases,"MatLyLu (MLL) cells [2]; two weeks after tumor measurement, 10-fold magnification, primary tumors not removed",less than 5
same,clotting of peptide-treated blood,[3],appears in vivo to clot very slowly
same,antitumorigenic and antimetastatic activity,MATLyLu prostate cancer,potent antitumorigenic and antimetastatic agent for MATLyLu prostate cancer
same,inhibition of PHSRN-induced invasion,[4],substantial inhibitory affect on both cell lines at low concentrations; also recorded: almost complete inhibition at higher concentrations
same,inhibition of PHSRN-induced invasion,"[5]; serum free medium, 100 ng per ml PHSRN",substantial inhibitory affect on both cell lines at low concentrations; also recorded: almost complete inhibition at higher concentrations
same,inhibition of serum-induced invasion,[5]; serum-induced,"substantial inhibitory affect on these cells, even at relatively low concentrations; also recorded: relatively high concentrations cause complete inhibition"
same,MAb 2252 anti-β1 monoclonal antibody binding after PHSCN prebinding,β1 integrin,reduces MAb 2252 anti-β1 monoclonal antibody binding
same,inhibition of serum-induced invasion,MatLyLu (MLL) cells [6]; 1 microgram per ml,complete inhibition of invasion
same,inhibition of PHSRN-induced invasion,"MatLyLu (MLL) cells [6]; serum free media, 100 ng per ml PHSRN, varying concentration",substantial inhibitory affect even at low concentrations; also recorded: almost complete inhibition at higher concentrations
same,serum-induced FAK phosphorylation at tyrosine 397,FAK,downregulation of FAK-phosphorylation
same,inhibition of serum-induced invasion,"[7]; DU-145, 10% serum","substantial inhibitory affect on these cells, even at relatively low concentrations; also recorded: relatively high concentrations cause complete inhibition"
same,inhibition of PHSRN-induced invasion,"[7]; DU-145, serum-free medium, 100 ng per ml PHSRN",substantial inhibitory affect on both cell lines at low concentrations; also recorded: almost complete inhibition at higher concentrations
same,Caspase 3 activation,DU 145 cells; [11],Caspase 3 activation
same,Caspase 6 activation,DU 145 cells; [11],Caspase 6 activation
same,Caspase 9 activation,DU 145 cells; [11],Caspase 9 activation
same,Bad and Bax protein expression,"DU 145 cells; adherent DU 145 cells, Days 1-7, Western immunoblot",upregulates Bad and Bax protein expression
same,apoptosis induction,"DU 145 cells; adherent DU 145 cells, soluble peptide",induces adherent DU 145 human prostate cancer cell apoptosis
same,cytokeratin 18 epitope,"DU 145 cells; five (5) days, 200 μg per ml per 20,000 cells",induction of the cytokeratin 18 epitope
same,treated mice in which metastasis progression was prevented,[8],100%
same,association of the PI3′-kinase p85 regulatory subunit with FAK,[9],decreases the association of the PI3′-kinase p85 regulatory subunit with FAK
same,tumor growth,"MatLyLu (MLL) cells [10]; 5 i.v. injections of 1 mg over two weeks, initiated after 24 hours, day 14",substantially slows the growth of rat prostate cancer tumors
same,tumor sizes,MatLyLu (MLL) cells [10]; 7 to 9 days following the last PHSCN injection,greater than 2 cm
same,mean masses of lymphatic (intraperitoneal) metastases,MatLyLu (MLL) cells [10]; compared to untreated rats,significant reduction in the mean masses of lymphatic metastases
same,mean numbers of lung metastases,"MatLyLu (MLL) cells [10]; compared to untreated rats, 7.5-fold magnification",significant reduction in the mean numbers of lung metastases
